Out of some 400,000 compounds screened, about 5,500 (1.4%) were called active. Inconclusive means that the source gave no clear call. Such entries were picked first, then a sample of the others. The call rests on the fitted dose curve; in most records, active means well fitted cell-killing curve with a large enough effect; inconclusive means small, poorly fitted or top-dose-only effect, or effect the other way; inactive means flat fitted curve, though single readings scatter. Potencies of inconclusive entries are doubtful fits and often do not repeat.
assay: qHTS assay for MDR1-selective chemotherapeutics: Primary screen using the parental adenocarcinoma cell KB-3-1; conditions: KB-3-1 viability, CellTiter-Glo ATP luminescence, 72 h; activity change, negative = cytotoxic: at 46.1 µM (top of the series); further: nearly all actives have a fitted effect of over 60% in size
Procedure, shortened: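 Luminescent ATP read-out (CellTiter-Glo) measures survival of drug-naive KB-3-1 cells after 72 h compound exposure at 37 °C. Titration series was screened from lowest to highest concentration, with DMSO vehicle plates as background controls.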
On the % scale 0 is the no-effect control and ±100 the full control effect; potency means the concentration at half of the fitted maximal effect.

Row | Structure (SMILES) | Potency | activity change, negative = cytotoxic
1 | CNS(=O)(=O)c1cn(CC(=O)N2CCN(c3ccccc3OC)CC2)cc1S(=O)(=O)NC | inactive | –
2 | Cc1ccc(CNC(=O)CN(c2cccc([N+](=O)[O-])c2)S(C)(=O)=O)cc1 | inconclusive: 29.1 µM [cytotoxic, single point] | –
3 | Cc1ccccc1Nc1c(-c2ccccn2)nc2ccccn12 | inconclusive: 20.6 µM [cytotoxic, single point] | –
4 | CCn1c(=N)n(CC(=O)c2ccco2)c2ccccc21 | inconclusive: 31.6 µM [cytotoxic, single point] | –
5 | C[C@@H](NC(=O)c1ncn(C)c1C(=O)N[C@H](C)c1ccccc1)c1ccccc1 | inactive | –
6 | O=C1CC(N(CCc2ccccc2)C(=S)Nc2ccccc2)C(=O)N1c1ccc(F)cc1 (stereo not given) | inconclusive: 29.1 µM [cytotoxic, single point] | –
7 | Oc1ccc(Cl)cc1N=Cc1sc2ccccc2c1Cl | inconclusive: 29.1 µM [cytotoxic, single point] | –
8 | c1ccc2oc(-c3[nH]ncc3CN3CCC(N4CCSCC4)CC3)cc2c1 | inactive | –
9 | COc1ccc(-c2ccc(=O)[nH]n2)cc1 | inactive | –
10 | Cc1ccc(CCNS(=O)(=O)c2ccc3c(c2)NC(=O)C(C)C(=O)N3)cc1 (stereo not given) | inactive | –
11 | O=C(/C=C/c1ccc2c(c1)OCO2)NCCS(=O)(=O)N1CCN(c2ccc(F)cc2)CC1 | inconclusive: 23.1 µM [cytotoxic, single point] | –
12 | CCN(CC)c1ccc(/C=C/c2cccc[n+]2C)c(OC)c1 | active: 0.651 µM | –
13 | N#Cc1cccc(NC(=O)CCNS(=O)(=O)c2ccc3c(c2)CCN3C(=O)C2CC2)c1 | inactive | –
14 | COC1=C(C)C(=O)C2=C(C1=O)C1C3CC4=C(C(=O)C(OC)=C(C)C4=O)C(CNC(=O)C(C)=O)N3C(C#N)C(C2)N1C (stereo not given) | active: 0.103 µM | –
15 | Cc1ccc(Nc2nc(CSc3nnnn3-c3ccccc3)cc(=O)[nH]2)cc1 | inconclusive: 20.6 µM [cytotoxic, single point] | –
16 | CCN(CC)S(=O)(=O)c1ccc(N)cc1 | inactive | –
17 | O=[N+]([O-])c1cnc(Nc2ccc(Cl)cn2)c([N+](=O)[O-])c1 | inactive | –
18 | CCCNC(=O)Cn1c(SCc2ccccc2C)nc2ccncc21 | inconclusive: 29.1 µM [rising, single point] | –
19 | Cc1sc2ncnc(N3CCC(C(=O)Nc4cc(C(F)(F)F)ccc4OCC(F)(F)F)CC3)c2c1C | inconclusive: 16.4 µM [cytotoxic, single point] | –
20 | CC(=O)Nc1ccc(NC(=O)CSc2ncnc3c2cnn3Cc2ccccc2)cc1 | – | inconclusive: -17.4%
21 | Cn1c(=O)[nH]c(=O)c2c1nc(N)n2Cc1ccccc1 | inactive | –
22 | CCOc1c(C)cnc2c1c(=O)n(Cc1ccc(Cl)cc1)c(=O)n2C | – | inconclusive: -4.08%
23 | O=C(c1ccccc1)c1ccccc1N1C(=O)C=CC1=O | inactive | –
24 | Cc1cc(C)cc(-n2ccnc2SCC(=O)Nc2nc3ccc(C)cc3s2)c1 | inconclusive: 0.259 µM [cytotoxic, full curve] | –
25 | CC1(C)Cc2ccccc2-c2nnc(SCC(=O)N3CCN(c4ccccc4)CC3)n21 | active: 11.6 µM | –

Row | Structure (SMILES) | Potency | activity change, negative = cytotoxic
26 | COc1cc(S(=O)(=O)N2CCn3cccc3C2C)ccc1NC(C)=O (stereo not given) | inconclusive: 7.31 µM [rising, partial curve, poor fit] | –
27 | C=CCc1c(C)nc(SC)nc1Nc1ccccc1 | inactive | –
28 | COc1cc(-c2nnc(SCC(=O)N3c4ccccc4Sc4ccccc43)o2)cc(OC)c1OC | inconclusive: 18.4 µM [cytotoxic, single point] | –
29 | Cc1ccc(/C=N/N2CCOCC2)s1 | inactive | –
30 | CCOc1ccccc1NC(=O)CN1C(=O)C2(SCC(=O)N2c2ccc(C)cc2)c2ccccc21 (stereo not given) | inconclusive: 20.6 µM [cytotoxic, single point] | –
31 | CC(=O)Nc1ccc(C(=O)N2CCCCC2c2cc(C(=O)Nc3cccc4c3CCCC4)no2)cc1 (stereo not given) | inconclusive: 29.1 µM [cytotoxic, single point] | –
32 | CC(=O)Nc1ccc(-c2ccnc3c2CC(C(=O)Nc2cccc(C(C)=O)c2)O3)cc1 (stereo not given) | inactive | –
33 | Cc1cc(Br)c(NC(=O)CN2C(=O)NC3(CCOc4ccccc43)C2=O)c(Br)c1 (stereo not given) | inactive | –
34 | COC(=O)c1cn(C(=O)c2ccc(OC)cc2)c2ccccc12 | inconclusive: 18.4 µM [cytotoxic, single point] | –
35 | O=C(N/N=C1\CC2CC=CC12)c1ccc(Br)cc1 (stereo not given) | inactive | –
36 | O=C(CN1CCN(S(=O)(=O)c2ccc(F)cc2)CC1)Nc1ccc(Cl)c(C(F)(F)F)c1 | inconclusive: 29.1 µM [cytotoxic, single point] | –
37 | C=CCCCCCCCC(=O)OC | inactive | –
38 | COc1ccc(OC)c(Nc2c3c(nc4ccccc24)CCC3)c1 | active: 1.03 µM | –
39 | CCCN(Cc1cccs1)C(=O)Nc1ccc(F)c(Cl)c1 | inactive | –
40 | CCCCc1ccc(NC(=O)Nc2cnccn2)cc1 | active: 11.6 µM | –
41 | O=C1c2ccc([N+](=O)[O-])cc2C(=O)N1Cc1cccnc1 | inactive | –
42 | NC(=O)c1cc(Br)cc2c3c([nH]c12)CCCC3 | active: 8.2 µM | –
43 | COc1ccc(-c2[nH]c(-c3ccc4c(c3)OCO4)nc2-c2ccccc2)cc1 | inconclusive: 29.1 µM [cytotoxic, single point] | –
44 | FC(F)(F)c1nnc2c(Sc3ccccc3)nc3ccc(Cl)cc3n12 | inconclusive: 29.1 µM [cytotoxic, single point] | –
45 | CS(=O)(=O)N1CCc2cc(C(=O)Nc3ccc(S(N)(=O)=O)cc3)ccc21 | inactive | –
46 | O=[N+]([O-])c1cc([N+](=O)[O-])c(N2CCOCC2)cc1NCc1ccccc1 | inactive | –
47 | COc1ccc(CN2CCN(C(=O)c3ccc(S(=O)(=O)NCc4ccco4)cc3)CC2)cc1F | inconclusive: 10.3 µM [cytotoxic, partial curve] | –
48 | Cc1cccc(C(=O)OCc2cc(=O)n3nc(-c4cccs4)sc3n2)c1 | inactive | –
49 | CCCSc1nnc2n(-c3cccc(C)c3)c(=O)c3c4c(sc3n12)CCCC4 | inconclusive: 29.1 µM [cytotoxic, single point] | –
50 | O=[N+]([O-])c1cccc(COc2cccc(CO)c2)c1 | inconclusive: 6.51 µM [cytotoxic, partial curve] | –

Complete entries as entered above. Order of values: Potency | activity change, negative = cytotoxic
O=[N+]([O-])c1cc([N+](=O)[O-])c(N2CCOCC2)cc1NCc1ccccc1 reads inactive | –
O=[N+]([O-])c1cccc(COc2cccc(CO)c2)c1 reads inconclusive: 6.51 µM [cytotoxic, partial curve] | –
